These are yes or no findings as the source states them, for the method shown. In cells and extracts the contact can be indirect. Here binding means that the protein was enriched with, or labelled near, the bait; the list need not be complete. For part of these data: A no says only that the protein was not detected with the bait.
Key:
ARPC1–GFP (P. berghei) [1] = test: affinity purification with mass spectrometry; GFP-Trap agarose on lysates of purified non-activated P. berghei gametocytes, fixed immediately in 1% formaldehyde and quenched with glycine; enrichment against PbGFPcon gametocytes; four replicates
ARPC1–GFP (P. berghei) [2] = test: affinity purification with mass spectrometry; GFP-Trap agarose on lysates of purified P. berghei gametocytes activated 4 min at 19 °C in ookinete medium, fixed in 1% formaldehyde and quenched with glycine; enrichment against PbGFPcon gametocytes; four replicates
[3] = target: ARPC2–YFPint (P. berghei); test: as above

Protein sequences, listed by entry. Tags and fused reporters are not part of them. Lines headed by an entry give the natural chain unless they say otherwise; changes in a name come on top.
UniProt A0A509AML7: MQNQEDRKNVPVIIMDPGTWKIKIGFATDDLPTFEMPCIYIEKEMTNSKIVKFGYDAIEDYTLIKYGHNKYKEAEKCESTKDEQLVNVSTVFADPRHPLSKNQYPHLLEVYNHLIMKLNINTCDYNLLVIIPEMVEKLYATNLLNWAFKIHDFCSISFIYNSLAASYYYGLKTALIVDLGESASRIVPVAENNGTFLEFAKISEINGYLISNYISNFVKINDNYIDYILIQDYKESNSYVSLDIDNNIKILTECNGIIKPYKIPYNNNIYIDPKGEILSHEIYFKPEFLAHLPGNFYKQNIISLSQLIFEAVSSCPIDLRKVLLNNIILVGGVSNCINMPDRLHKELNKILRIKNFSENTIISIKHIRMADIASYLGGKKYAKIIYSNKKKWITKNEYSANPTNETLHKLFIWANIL
UniProt A0A509AIH3: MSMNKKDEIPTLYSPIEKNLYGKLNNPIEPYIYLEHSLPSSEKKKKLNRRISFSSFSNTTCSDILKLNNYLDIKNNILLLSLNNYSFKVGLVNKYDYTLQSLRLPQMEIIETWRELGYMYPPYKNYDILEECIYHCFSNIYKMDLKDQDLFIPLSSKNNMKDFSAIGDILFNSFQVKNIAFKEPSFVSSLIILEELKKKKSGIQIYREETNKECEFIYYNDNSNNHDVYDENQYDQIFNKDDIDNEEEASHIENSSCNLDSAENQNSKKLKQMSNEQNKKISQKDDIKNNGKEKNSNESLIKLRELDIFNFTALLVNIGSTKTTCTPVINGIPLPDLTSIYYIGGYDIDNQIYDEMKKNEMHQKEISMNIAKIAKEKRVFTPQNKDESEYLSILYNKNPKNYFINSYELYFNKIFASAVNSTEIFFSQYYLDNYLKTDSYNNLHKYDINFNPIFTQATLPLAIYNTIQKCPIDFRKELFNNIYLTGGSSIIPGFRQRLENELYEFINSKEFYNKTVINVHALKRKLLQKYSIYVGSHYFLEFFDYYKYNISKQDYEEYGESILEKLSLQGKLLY
UniProt A0A509AF39: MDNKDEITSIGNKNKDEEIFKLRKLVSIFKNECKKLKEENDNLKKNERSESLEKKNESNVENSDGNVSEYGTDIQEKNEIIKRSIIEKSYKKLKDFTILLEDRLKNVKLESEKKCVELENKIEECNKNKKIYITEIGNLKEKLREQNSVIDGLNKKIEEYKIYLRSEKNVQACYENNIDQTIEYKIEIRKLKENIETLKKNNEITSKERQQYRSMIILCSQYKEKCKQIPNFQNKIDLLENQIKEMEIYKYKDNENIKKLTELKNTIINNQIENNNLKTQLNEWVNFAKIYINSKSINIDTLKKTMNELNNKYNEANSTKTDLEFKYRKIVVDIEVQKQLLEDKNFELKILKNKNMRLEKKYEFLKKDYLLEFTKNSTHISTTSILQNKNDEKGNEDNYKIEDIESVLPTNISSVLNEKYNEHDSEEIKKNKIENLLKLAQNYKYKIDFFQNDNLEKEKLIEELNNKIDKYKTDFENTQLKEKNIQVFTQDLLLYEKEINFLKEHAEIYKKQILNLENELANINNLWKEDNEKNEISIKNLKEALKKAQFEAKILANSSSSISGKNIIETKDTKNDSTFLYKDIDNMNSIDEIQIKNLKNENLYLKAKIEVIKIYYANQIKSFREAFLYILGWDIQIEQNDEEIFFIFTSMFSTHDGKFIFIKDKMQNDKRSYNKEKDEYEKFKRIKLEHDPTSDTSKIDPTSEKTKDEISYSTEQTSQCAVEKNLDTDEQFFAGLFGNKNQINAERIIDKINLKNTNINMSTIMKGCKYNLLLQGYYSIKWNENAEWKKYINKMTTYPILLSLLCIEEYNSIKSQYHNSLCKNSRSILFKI

| binding (ARPC1–GFP (P. berghei) [2]) | binding [3] | Substance | binding (ARPC1–GFP (P. berghei) [1]) |
| --- | --- | --- | --- |
| binds | binds | Alp5b (from UniProt A0A509AML7) | no binding (only non-activated gametocytes) |
| binds | binds | Alp5a (from UniProt A0A509AIH3) | no binding (only non-activated gametocytes) |
| binds | binds | apicomplexan-specific kinetochore protein 7 (from UniProt A0A509AF39) | no binding (only non-activated gametocytes) |
